# Measured values taken from PubChem BioAssay AID1347076 (National Center for Advancing Translational Sciences (NCATS), 2019).
# Hit rate of the full screen: of about 400,000 compounds, about 13,000 (3.2%) were called active. Inconclusive means that the source gave no clear call. Such entries were picked first, then a sample of the others. Calls come from the whole dose curve; as a rule, active = well fitted cell-killing curve with a large enough effect; inconclusive = small, poorly fitted or top-dose-only effect, or effect the other way; inactive = flat fitted curve, though single readings scatter. A potency beside an inconclusive call is a rough fit, not a confirmed value.
# Test: qHTS assay for MDR1-selective chemotherapeutics: Primary screen using the drug-selected MDR subline cells KB-V1; note: nearly all actives have a fitted effect of over 60% in size
# Details: KB-V1 MDR cells viability, CellTiter-Glo, 72 h; activity change, negative = cytotoxicity: at 46.1 µM (top of the series)
# Method in brief: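 Cytotoxicity via CellTiter-Glo luminescence after 72 h compound exposure at 37 degrees C. Cells: drug-selected KB-V1 line, DMEM phenol-red free plus 10% FBS. Compounds tested at multiple concentrations; normalized data fitted to concentration-effect curves.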
# % is set by controls: 0 for no effect and ±100 for the full control effect; potency is the fitted concentration of half-maximal effect.
Structure (SMILES),Potency,"activity change, negative = cytotoxicity"
O=C(NCCCN1CCN(c2ccc(F)cc2)CC1)c1cc2c(s1)-c1ccccc1OC2,"inconclusive: 2.91 µM [cytotoxic, full curve]",–
Cc1ccc(C(=O)CSc2nnnn2-c2ccccc2)o1,–,inactive: 0%
CCN(C(=O)Cn1nc2c3cc(F)ccc3n(Cc3cccc(C)c3)cc-2c1=O)c1cccc(C)c1,"inconclusive: 11.6 µM [rising, partial curve, poor fit]",–
CSCCC1NC(=O)N(CC(=O)N2N=C(c3ccc(Cl)cc3)CC2c2ccco2)C1=O (stereo unspecified),"inconclusive: 14.6 µM [cytotoxic, single point]",–
CNC(=S)NNC(=O)c1cccn(Cc2ccc(Cl)c(Cl)c2)c1=O,"inconclusive: 20.6 µM [cytotoxic, single point]",–
O=C(NCC1(c2ccccc2)CCCC1)C1(c2ccccc2)CCCC1,"inconclusive: 18.4 µM [cytotoxic, single point]",–
CCN1C(=O)/C(=C\c2cccs2)C(C(=O)OC)=C1C,"inconclusive: 29.1 µM [cytotoxic, single point]",–
CCC(C)n1c(SCC(=O)NC2CCCC2)nc2ccccc2c1=O (stereo unspecified),"inconclusive: 2.31 µM [cytotoxic, full curve]",–
Cc1ccc(/C=N/NC(=O)CSc2ccccn2)o1,–,inconclusive: 41%
C[C@H](NC(=O)[C@@H]1CCCN1C(=O)[C@@H]1CCCN1C(=O)c1cccs1)c1ccccc1,–,inactive: -24.4%
COc1ccc(NC(=O)c2c(NC(=O)COc3ccc(Cl)cc3)sc3c2CCCCC3)cc1,–,inactive: 14%
COc1ccc(S(=O)(=O)Nc2c(C(=O)O)[nH]c3ccccc23)c(OC)c1,"inconclusive: 9.2 µM [rising, single point]",–
CCN(CC)c1ccc(/C=N/Nc2ccc(C)cc2)c(O)c1,–,inactive: -4.62%
CC(C)Cn1c(N)c(C(=O)COC(=O)c2cccn2C)c(=O)n(C)c1=O,–,inactive: -28%
COc1ccc(/C(O)=C2/C(=O)C(=O)N(Cc3ccco3)C2c2cccs2)cc1 (stereo unspecified),"inconclusive: 32.6 µM [cytotoxic, single point]",–
COC(=O)[C@@]1(C)[C@H]2C(=O)N(C)C(=O)[C@H]2[C@H]2CN=C(SC)N21,–,inactive: 23.5%
CNC(=S)N/N=C/c1cc(C)ccc1C,–,inactive: 0.491%
NS(=O)(=O)Oc1ccccc1,–,inactive: 2.24%
O=C1CC(c2ccccc2)CC(O)=C1C=NC1CCCCCC1 (stereo unspecified),–,inactive: -28.6%
CC1CC2(CCCC2)Nc2ccc(F)cc21 (stereo unspecified),–,inactive: 0%
Cc1cc(C(=O)Nc2ccc(F)c(Cl)c2)on1,"inconclusive: 9.2 µM [rising, partial curve, poor fit]",–
Cc1cc(N2CCC(C)CC2)nc(SCC(=O)c2ccccc2)n1,"inconclusive: 18.4 µM [cytotoxic, single point]",–
CCc1cc(C(=O)c2ccc(OC)cc2)c(NC(=O)CN2CCN(C)CC2)s1,–,inconclusive: 0%

# Random excerpt: 2 compounds from above
Structure (SMILES),Potency,"activity change, negative = cytotoxicity"
O=C(NCCCN1CCN(c2ccc(F)cc2)CC1)c1cc2c(s1)-c1ccccc1OC2,"inconclusive: 2.91 µM [cytotoxic, full curve]",–
Cc1ccc(/C=N/NC(=O)CSc2ccccn2)o1,–,inconclusive: 41%

# Following part:

Structure (SMILES),Potency,"activity change, negative = cytotoxicity"
CC(Oc1cc2oc(=O)c3c(c2cc1Cl)CCC3)C(=O)NCc1ccncc1 (stereo unspecified),"inconclusive: 0.291 µM [cytotoxic, full curve]",–
CCOc1ccc(C(=O)Nc2ccc(Cc3ccncc3)cc2)cc1Br,–,inactive: -17.1%
CCn1c(=O)c(C(=O)NCc2ccc3c(c2)OCO3)c(O)c2ccccc21,"inconclusive: 11.6 µM [cytotoxic, partial curve]",–
CCOC(=O)[C@]12CCC=C1N(Cc1ccccc1)C(=O)[C@H](CC(=O)N1CCN(C(=O)c3ccco3)CC1)C2,"inconclusive: 9.2 µM [cytotoxic, partial curve]",–
Cc1c(C(=O)N/N=C/C(C)C)[nH]c2c([N+](=O)[O-])cccc12,"inconclusive: 29.1 µM [cytotoxic, single point]",–
Cc1cc(Oc2ccc3ccccc3c2)nc(SCC(=O)c2ccccc2)n1,active: 16.4 µM,–
Nc1nc2ccc(Cl)cc2cc1C(=O)NCc1ccc(Oc2ccccc2)cc1,"inconclusive: 18.4 µM [cytotoxic, partial curve, poor fit]",–
Cc1cc(C(=O)N2CCCC(N3CCN(Cc4ccc5c(c4)OCO5)CC3)C2)n[nH]1 (stereo unspecified),–,inactive: 17.4%
Cc1ccccc1-n1c(C)nnc1SCC(=O)NC1CCCc2ccccc21 (stereo unspecified),"inconclusive: 23.1 µM [cytotoxic, partial curve, poor fit]",–
Cc1nn(-c2ccccc2)c2nc(N)c(C#N)c(-c3ccc(O)c(O)c3)c12,–,inactive: -24%
O=C(/C=C/c1cccs1)NNC(=O)c1ccccc1,"inconclusive: 29.1 µM [rising, single point]",–
COc1ccc(C(=O)c2cn(Cc3ccccc3F)c3ccc(F)cc3c2=O)cc1,–,inactive: -0.718%
CC(=O)NCCn1c(SCc2cc(F)ccc2F)nc2ccccc2c1=O,"inconclusive: 18.4 µM [cytotoxic, single point]",–
COc1ccc(/C=C/c2nc3ccccc3n2Cc2ccccc2OC)cc1,"inconclusive: 10.3 µM [cytotoxic, partial curve]",–
COc1cc(C(=O)Nc2ccccc2OCc2cc(=O)n3cc(C)sc3n2)cc(OC)c1OC,"inconclusive: 29.1 µM [rising, single point]",–
CC(C)(C)OC(=O)NCCCCCNC(=O)c1ncn2c1c(=O)[nH]c1ccccc12,–,inactive: -1.94%
COC(C[C@H]1O[C@H]1[C@@H](O)[C@@H](C)OCc1ccccc1)OC,"inconclusive: 8.2 µM [rising, partial curve, poor fit]",–
CCOC(=O)c1[nH]c(CO)c(C(=O)OCC)c1C,"inconclusive: 29.1 µM [cytotoxic, single point]",–
Cc1coc2c(C)c3oc(=O)c(CCC(=O)NCCCN4CCOCC4)c(C)c3cc12,"inconclusive: 8.2 µM [rising, partial curve]",–
CC(C)(C)C(=O)CC1(O)C(=O)N(Cc2ccccc2)c2ccccc21 (stereo unspecified),"inconclusive: 11.6 µM [cytotoxic, partial curve]",–
O=C(O)c1c[nH]c2c(C(F)(F)F)cccc2c1=O,"inconclusive: 32.6 µM [rising, single point]",–
Cc1cccc(NC(=O)c2oc3ccc(S(=O)(=O)N4CCCCC4)cc3c2C)c1C,–,inactive: -4.43%
O=C(O)COc1ccccc1/C=N/NC(=O)CSc1nc2ccccc2n1Cc1ccccc1Cl,"inconclusive: 0.0366 µM [rising, full curve]",–

# An excerpt from above in order of SMILES length, smallest number first:
Structure (SMILES),Potency,"activity change, negative = cytotoxicity"
Cc1cc(N2CCC(C)CC2)nc(SCC(=O)c2ccccc2)n1,"inconclusive: 18.4 µM [cytotoxic, single point]",–
COc1ccc(/C(O)=C2/C(=O)C(=O)N(Cc3ccco3)C2c2cccs2)cc1 (stereo unspecified),"inconclusive: 32.6 µM [cytotoxic, single point]",–
Cc1cc(C(=O)N2CCCC(N3CCN(Cc4ccc5c(c4)OCO5)CC3)C2)n[nH]1 (stereo unspecified),–,inactive: 17.4%
